Test results from patent EP4785953A1.
No constants are given. Whether binding was seen depends on the method and setting. Some results given as binding are weak or reduced against the parent protein; the word gives no strength.

Amino acid sequences for entries named in this document (tags omitted). Residues count along the entry.
UniProt P08581, residues 25-932: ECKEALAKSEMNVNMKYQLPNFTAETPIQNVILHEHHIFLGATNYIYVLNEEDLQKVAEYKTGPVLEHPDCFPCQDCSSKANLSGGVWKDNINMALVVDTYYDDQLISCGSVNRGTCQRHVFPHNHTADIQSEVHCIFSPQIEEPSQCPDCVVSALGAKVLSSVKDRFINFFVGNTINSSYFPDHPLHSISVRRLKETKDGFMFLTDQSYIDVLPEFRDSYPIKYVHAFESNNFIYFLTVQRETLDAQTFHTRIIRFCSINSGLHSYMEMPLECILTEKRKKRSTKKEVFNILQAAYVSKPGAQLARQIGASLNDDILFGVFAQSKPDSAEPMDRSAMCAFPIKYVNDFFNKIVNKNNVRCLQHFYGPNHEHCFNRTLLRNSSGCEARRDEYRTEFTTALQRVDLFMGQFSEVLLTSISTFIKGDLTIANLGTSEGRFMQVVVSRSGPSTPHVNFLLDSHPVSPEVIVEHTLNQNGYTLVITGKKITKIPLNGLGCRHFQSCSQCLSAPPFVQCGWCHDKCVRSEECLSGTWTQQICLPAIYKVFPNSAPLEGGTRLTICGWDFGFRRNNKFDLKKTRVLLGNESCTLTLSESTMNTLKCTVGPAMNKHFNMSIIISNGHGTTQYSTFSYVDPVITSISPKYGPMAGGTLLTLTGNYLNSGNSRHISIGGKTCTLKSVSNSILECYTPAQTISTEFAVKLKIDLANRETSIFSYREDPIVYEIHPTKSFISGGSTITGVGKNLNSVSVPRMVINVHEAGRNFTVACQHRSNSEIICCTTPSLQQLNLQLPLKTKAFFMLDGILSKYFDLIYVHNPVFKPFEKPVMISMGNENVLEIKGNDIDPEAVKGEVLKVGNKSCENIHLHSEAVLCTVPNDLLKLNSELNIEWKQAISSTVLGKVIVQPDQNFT

Biological target: human c-MET protein (human) (UniProt P08581)
Experiment: ForteBio BLI affinity measurement

binding: binds
B1: anti-c-MET antibody-1 (antibody, V domains shown)
VH: EVQLQESGPGLVKPSETLSLTCTVSGGSVTSVNYYWKWIRQPPGKGLEWIGYISYSGNTNYNPSLKSRVTISVDTSKNQFSLKLSSVTAADTAVYYCVRAPYYYMDVWSKGTTVTVSS
VL: DIVMTQSPSSVSASVGDRVTITCRASQGISSWLAWYQQKPGKAPKLLIYAVSSLQSGVPSRFSGSGSGTDFTLTISSLQPEDFATYFCQQANSFPLTFGGGTKVEIK
